From PubChem BioAssay AID901 (National Center for Advancing Translational Sciences (NCATS), 2007)
Some of the results follow. These are further read-outs of the screen, such as a control signal, another cell line or another target. No call is given for them. Compounds called inactive in the main read-out are mostly missing here. Words in brackets tell the shape of the fitted curve; partial curves, single points and poor fits give uncertain potencies.

test: qHTS Assay for Identifying the Cell-Membrane Permeable IMPase Inhibitors; settings: CHO-M1 cells, IP1 accumulation, HTRF TR-FRET ratio; measured here: donor channel 620 nm AC50

Row | Compound | AC50
1 | O=C1CCCCCN1Cc1nnc(SCc2nc3ccccc3s2)n1-c1ccccn1 | 10 µM [falling, partial curve]
2 | CCOC(=O)C1(Cc2ccccc2)NC(c2ccccc2F)C2C(=O)N(CC)C(=O)C21 (centres undefined) | 0.0316 µM [rising, full curve, poor fit]
3 | COc1ccccc1NC(=O)N1CCC(C(=O)c2ccc(F)cc2)CC1 | 0.0501 µM [falling, full curve, poor fit]
4 | CCc1nc(SCC(=O)NCc2ccco2)c2c3c(sc2n1)CCCC3 | 39.8 µM [rising, partial curve, poor fit]
5 | CC(C)Oc1ccc(/C=N/NC(=O)C(CSCc2ccccc2)NC(=O)c2ccc([N+](=O)[O-])cc2)cc1 (centres undefined) | 1 µM [falling, partial curve, poor fit]
6 | Cc1c(CCOC(=O)C23CC4CC(CC(C)(C4)C2)C3)sc[n+]1Cc1ccccc1 | 15.8 µM [rising, partial curve, poor fit]
7 | Cc1cc(C(=O)CSc2nnc(Cc3ccccc3)o2)c(C)n1Cc1ccc2c(c1)OCO2 | 0.158 µM [falling, full curve, poor fit]
8 | O=C(Nc1c2c(nn1-c1ccc(F)cc1)CS(=O)C2)C12CC3CC(CC(C3)C1)C2 (centres undefined) | 2.51 µM [falling, full curve, poor fit]
9 | Cc1ccc(S(=O)(=O)C2(C(=O)Nc3ccc(F)cc3)CC2)cc1 | 1.26 µM [falling, partial curve]
10 | Nc1c(C(=O)Nc2ccc(Br)cc2)sc2nc(-c3ccco3)ccc12 | 0.794 µM [falling, full curve]
11 | CC(C)Cn1c(CCC(=O)O)ccc1-c1cccs1 | 0.0251 µM [falling, full curve]
12 | Cc1cc2cc(CNC(=O)c3ccc(S(=O)(=O)N(C)C)cc3)ccc2n1C | 2 µM [falling, partial curve]
13 | CCN1CCCC1CNC(=O)CCc1nc(-c2ccc(C)cc2)no1 (centres undefined) | 3.16 µM [rising, single point]
14 | COc1ccc2nc(C(C)O)[nH]c2c1 (centres undefined) | 5.01 µM [falling, single point]
15 | CCCCSC1(SCCCC)N=C(N)C2(C#N)C(c3ccccc3)NC(C)=CC12C#N (centres undefined) | 0.0126 µM [rising, full curve, poor fit]
16 | Oc1ccc(Br)cc1-c1cc(-c2ccccc2F)[nH]n1 | 0.0158 µM [falling, full curve]
17 | COc1ccc(NC(=O)c2ccc(C(=O)c3cc(OC)ccc3OC)cc2)cc1 | 31.6 µM [rising, single point]
18 | CCN(CC)CCCN(Cc1cc2cc3c(cc2[nH]c1=O)OCCO3)C(=O)Nc1ccccc1 | 0.00398 µM [falling, full curve, poor fit]
19 | COc1ccccc1CNC(=O)c1cccc(Nc2nc3ccccc3n3nnnc23)c1 | 25.1 µM [rising, single point]
20 | Cn1c(=O)c2c(nc(N3CCOCC3)n2CCCNC2=NCCC2)n(C)c1=O | 3.98 µM [rising, full curve]
21 | COc1cc(NC(=O)Cn2c(C)cc3ccccc3c2=O)cc(OC)c1OC | 0.0316 µM [rising, full curve, poor fit]
22 | O=C(O)C1CCCCC1C(=O)NCCc1ccncc1 (centres undefined) | 3.16 µM [rising, partial curve]

Compounds 10–14 from above:
Row | Compound | AC50
10 | Nc1c(C(=O)Nc2ccc(Br)cc2)sc2nc(-c3ccco3)ccc12 | 0.794 µM [falling, full curve]
11 | CC(C)Cn1c(CCC(=O)O)ccc1-c1cccs1 | 0.0251 µM [falling, full curve]
12 | Cc1cc2cc(CNC(=O)c3ccc(S(=O)(=O)N(C)C)cc3)ccc2n1C | 2 µM [falling, partial curve]
13 | CCN1CCCC1CNC(=O)CCc1nc(-c2ccc(C)cc2)no1 (centres undefined) | 3.16 µM [rising, single point]
14 | COc1ccc2nc(C(C)O)[nH]c2c1 (centres undefined) | 5.01 µM [falling, single point]

Following part:

Row | Compound | AC50
23 | CCOC(=O)CSC1=Nc2ccccc2C2=NC(CC(=O)NCc3ccc(OC)cc3)C(=O)N12 (centres undefined) | 0.2 µM [falling, partial curve, poor fit]
24 | COc1cccc2sc(Nc3nnc(-c4cccs4)o3)nc12 | 0.00631 µM [rising, full curve, poor fit]
25 | Cc1nc(SCCC(=O)O)c2ccccc2n1 | 12.6 µM [rising, partial curve]
26 | CCCCn1nc(NC(=O)c2cccs2)c2cc3ccccc3nc21 | 6.31 µM [rising, single point]
27 | CCOc1ccc(-c2nc(SCC(=O)Nc3ccc4c(c3)OCCO4)c(-c3ccc(F)cc3)[nH]2)cc1 | 2.82 µM [falling, full curve, poor fit]
28 | CCN(CC)c1ccc(-n2nc3cc(C)c(NC(=O)c4ccccc4F)cc3n2)cc1 | 0.631 µM [falling, full curve]
29 | COc1ccc(-c2cc(C(F)(F)F)nc(SCC(=O)NCCc3ccc(OC)c(OC)c3)n2)cc1 | 5.62 µM [rising, single point]
30 | Cc1ccc(NC2=NC(=S)N(CC#N)C23CCCCC3)cc1 | 0.2 µM [rising, single point]
31 | CCC(C)NC(=O)C1CCC(=O)N(c2cc(OC)c(OC)c(OC)c2)C1c1ccc(OC)cc1 (centres undefined) | 0.355 µM [falling, partial curve, poor fit]
32 | CCc1ccccc1-n1cnc2cc(C(=O)O)ccc21 | 0.0251 µM [falling, full curve, poor fit]
33 | COc1cc(/C=c2\sc3nc(-c4ccncc4)nn3c2=O)ccc1OC(C)=O | 10 µM [falling, partial curve]
34 | O=C(Nc1cccc2ccccc12)C12CC3CC(C1)CC(n1cnc([N+](=O)[O-])n1)(C3)C2 | 0.158 µM [falling, full curve, poor fit]
35 | Cc1cc(C)c(C#N)c(SCc2cc3c(cc2Cl)OCO3)n1 | 0.398 µM [rising, partial curve, poor fit]
36 | Cc1ccc(-c2ncccc2OC(=O)C23CC4CC(CC(C4)C2)C3)cc1 | 2.51 µM [falling, partial curve, poor fit]
37 | Nc1c(C(=O)Nc2ccccc2F)sc2nc(Cc3ccccc3)cc(C(F)(F)F)c12 | 31.6 µM [rising, single point]
38 | Cc1cccc(C)c1N/C=C/c1onc(C)c1[N+](=O)[O-] | 0.0398 µM [falling, full curve, poor fit]
39 | Cc1ccccc1OCC(=O)Nc1sc(C(=O)Nc2cccc(C)c2C)c(C)c1C#N | 5.01 µM [rising, single point]
40 | COc1ccc(-c2[nH]c(-c3ccccc3)nc2SCC(=O)Nc2ccc3c(c2)OCO3)cc1 | 22.4 µM [falling, single point]
41 | N/C(=N\OC(=O)c1cc(Cl)ccc1Cl)c1cccnc1 | 31.6 µM [rising, single point]
42 | COC(=O)c1cn(-c2ccccc2)c(C)c1C(=O)OC | 3.16 µM [falling, single point]
43 | CCc1ccc(NC(=O)N(CCCOC(C)C)C2CCN(C(C)=O)CC2)cc1 | 0.501 µM [falling, full curve]
44 | Cc1ccc(NC(=O)Cc2nc(CSc3nnc(-c4ccc5c(c4)OCO5)o3)cs2)cc1 | 31.6 µM [falling, single point]

Row | Compound | AC50
45 | Cc1ccc(S(=O)(=O)N2C(=O)CCC2C(=O)Nc2ccc3c(c2)OCCO3)cc1 (centres undefined) | 35.5 µM [falling, single point]
46 | O=C(CSc1nc(Nc2ccccc2)nc(N2CCOCC2)n1)N1CCc2ccccc21 | 10 µM [falling, partial curve, poor fit]
47 | Cn1c(=O)c2[nH]c(-c3ccccc3)c(O)c2n(C)c1=O | 12.6 µM [falling, partial curve]
48 | CC1(C)Cc2cccc(OCC(O)CNCc3ccccn3)c2O1 (centres undefined) | 3.16 µM [rising, partial curve, poor fit]
49 | COc1ccc(N(CC(=O)Nc2cc(C)ccc2OC)S(=O)(=O)c2c(C)noc2C)cc1 | 0.0398 µM [rising, full curve, poor fit]
50 | Cc1ccc(C)n1-c1ccccc1N | 0.2 µM [rising, partial curve]
51 | CC(=O)Nc1ccc(NC(=O)C(F)(F)F)cc1 | 0.2 µM [falling, full curve]
52 | Cc1ccc(-c2nc(NC(=O)CSc3nnnn3-c3ccccc3)ns2)cc1 | 12.6 µM [rising, partial curve]
53 | CSc1nnnn1CCn1nnnc1SC | 39.8 µM [rising, partial curve, poor fit]
54 | Cc1ccccc1C(=O)c1cccn1CC(=O)N1CCCCCC1 | 0.794 µM [falling, full curve, poor fit]
55 | CN1CCN(c2ncnc3c2[nH]c2ccc(F)cc23)CC1 | 12.6 µM [falling, partial curve, poor fit]
56 | Cn1c(NC(=O)/C=C/c2ccccc2)cc(=O)n(C)c1=O | 3.55 µM [rising, partial curve]
57 | N#Cc1c(SCC(N)=O)nc(-c2ccccc2)c2c1CCCC2 | 5.01 µM [rising, partial curve, poor fit]
58 | N#CCC(=O)Nc1ccccc1C(=O)O | 0.02 µM [falling, full curve, poor fit]
59 | Cc1ccc(OCCN2C(=O)CSC2=O)cc1 | 0.501 µM [falling, full curve, poor fit]
60 | COc1ccc(-c2[nH]c(-c3ccc(C(=O)O)cc3)nc2-c2ccccc2)cc1 | 20 µM [rising, partial curve, poor fit]
61 | O=S(=O)(NCCC(c1ccc(F)cc1)c1ccco1)c1ccccc1 (centres undefined) | 35.5 µM [rising, single point]
62 | O=C(NC1CCCCCCC1)c1ccc2c(c1)N(Cc1ccc(F)cc1)C(=O)CS2=O (centres undefined) | 0.0316 µM [rising, full curve, poor fit]
63 | CC(C)CC(=O)Nc1cccc2c1C(=O)N(c1ccccc1)C2=O | 0.1 µM [rising, single point]
64 | O=C(c1ccc(F)cc1F)N(Cc1ccccn1)Cc1ccco1 | 0.0126 µM [rising, full curve, poor fit]
